PubChem BioAssay AID504808, Drosophila RNAi Screening Center, 2011
Test: 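Fly genes required to hold E2F transcription in check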 (primary screen). System: Drosophila S2 cells. Knock-down reagent: long dsRNA against Drosophila genes. Read-out: 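Firefly luciferase driven by E2F sites, normalised to Renilla luciferase on the same minimal promoter, measured by plate reader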. Reading the numbers: E2F firefly: higher = more E2F reporter activity; Renilla normaliser: higher = more normaliser reporter signal. Call rule: 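a knock-down counted as active when the firefly/Renilla E2F signal rose above 50%, a threshold chosen arbitrarily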.
The deposit covers about 21,000 reagents; this is a random part of those that have a named target and a result. Of all reagents, 18 (0.084%) were called active. 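Raw counts without plate normalisation, one of two replicates; the ratio scores behind the calls were not deposited.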 Unmarked entries are inactive. Names joined by + are all predicted targets of the reagent. Not stated in the record: the amount of reagent, the time to read-out.

| E2F firefly, rep 1 | Renilla normaliser, rep 1 | target gene | dsRNA |
| --- | --- | --- | --- |
| 69597 | 3472 | GstO2 (Glutathione S transferase O2) | DRSC10691 |
| 1.08e5 | 4639 | CG11629 | DRSC03695 |
| 1.27e5 | 6400 | Cad99C (Cadherin 99C) | DRSC15050 |
| 1938 | 1076 | Cad99C (Cadherin 99C) | DRSC16317 |
| 1.51e5 | 4992 | Tsp33B (Tetraspanin 33B) | DRSC02418 |
| 79374 | 2743 | Gr10a (Gustatory receptor 10a) | DRSC18897 |
| 1.36e5 | 4636 | CG8349 | DRSC03083 |
| 2.14e5 | 5890 | CG10598 | DRSC19358 |
| 93823 | 4214 | CG42502 + CG10570 | DRSC02071 |
| 89480 | 3567 | CG13679 | DRSC10037 |
| 86911 | 3804 | ATPsynF (ATP synthase, subunit F) | DRSC04482 |
| 1.14e5 | 5832 | RpL36A (Ribosomal protein L36A) | DRSC03055 |
| 1.14e5 | 5730 | Jhbp7 (Juvenile hormone binding protein 7) | DRSC14408 |
| 48856 | 36322 | His3:CG33818 + His3:CG33857 + His3:CG33806 + 20 more | DRSC21267 |
| 1.18e5 | 5391 | CG5810 | DRSC15880 |
| 2797 | 43 | CG33144 | DRSC06132 |
| 1.59e5 | 5564 | CG33144 | DRSC07024 |
| 70046 | 3773 | Taf12 (TBP-associated factor 12) | DRSC16879 |
| 1.46e5 | 6531 | CG14182 | DRSC10181 |
| 2932 | 175 | Prp38 (pre-mRNA processing factor 38) | DRSC07060 |
| 1.40e5 | 6022 | CG14190 | DRSC19545 |
| 1.02e5 | 4893 | CG15255 | DRSC01869 |
| 63445 | 4423 | RpL23 (Ribosomal protein L23) | DRSC04648 |
| 71582 | 4033 | Ncoa6 (Nuclear receptor coactivator 6) | DRSC02353 |
| 81918 | 3285 | CG41020 (retired record) | DRSC20866 |
| 8224 | 824 | PGAP1 (Post-GPI attachment to proteins 1) | DRSC18286 |
| 1.06e5 | 7006 | Nup37 (Nucleoporin 37kD) | DRSC14419 |
| 83959 | 2542 | ttk (tramtrack) | DRSC14078 |
| 1.14e5 | 4337 | ttk (tramtrack) | DRSC17091 |
| 1.35e5 | 5860 | CG8087 | DRSC16375 |
| 2808 | 209 | CG1671 | DRSC06617 |

Continued; the last 2 above are carried over.
| E2F firefly, rep 1 | Renilla normaliser, rep 1 | target gene | dsRNA |
| --- | --- | --- | --- |
| 1.35e5 | 5860 | CG8087 | DRSC16375 |
| 2808 | 209 | CG1671 | DRSC06617 |
| 1.18e5 | 6620 | Obp83g (Odorant-binding protein 83g) | DRSC12269 |
| 87164 | 5117 | CG33489 | DRSC10588 |
| 134 | 33 | Dgkepsilon (Diacyl glycerol kinase epsilon) | DRSC07399 |
| 1.52e5 | 4858 | Asap (ArfGAP with SH3 domain, ankyrin repeat and PH domain) | DRSC06493 |
| 2842 | 223 | Asap (ArfGAP with SH3 domain, ankyrin repeat and PH domain) | DRSC06830 |
| 72269 | 2410 | trv (trivet) | DRSC13846 |
| 1.28e5 | 5818 | trv (trivet) | DRSC14559 |
| 1.12e5 | 6006 | trv (trivet) | DRSC14560 |
| 1.26e5 | 5280 | trv (trivet) | DRSC14561 |
| 1.61e5 | 4258 | ena (enabled) | DRSC05779 |
| 72202 | 3137 | ena (enabled) | DRSC07610 |
| 99063 | 4335 | Atac3 (Ada2a-containing complex component 3) | DRSC08579 |
| 1.15e5 | 6297 | CG6420 | DRSC16035 |
| 1.12e5 | 4231 | atos (atossa) | DRSC07318 |
| 83765 | 4189 | CG7084 | DRSC16194 |
| 1.09e5 | 4234 | CG30275 | DRSC04163 |
| 36051 | 5735 | CR11700 (retired record) | DRSC17794 |
| 1.39e5 | 6754 | CG5897 | DRSC10555 |
| 1673 | 864 | Boh1 (Buddy of Hmr 1) | DRSC14487 |
| 68130 | 180 | Idgf5 (Imaginal disc growth factor 5) | DRSC06919 |
| 1.35e5 | 5050 | CG15615 | DRSC06568 |
| 66428 | 940 | CG3587 | DRSC18541 |
| 87487 | 3992 | Clamp (Chromatin-linked adaptor for MSL proteins) | DRSC03718 |
| 1.71e5 | 5368 | CG30110 | DRSC05686 |
| 1.53e5 | 5691 | lectin-21Ca | DRSC00541 |
| 98130 | 4184 | Teh4 (tipE homolog 4) | DRSC08457 |
| 1.39e5 | 6681 | gukh (GUK-holder) | DRSC14768 |
| 1.47e5 | 7350 | gukh (GUK-holder) | DRSC15806 |
| 68584 | 3184 | gukh (GUK-holder) | DRSC15944 |
| 62841 | 2116 | CG3632 | DRSC19137 |
| 8850 | 732 | CG3632 | DRSC19871 |
| 1.50e5 | 5068 | CG13751 | DRSC06422 |
| 88826 | 3810 | ATPsynCF6L (ATP synthase, coupling factor 6-like) | DRSC08232 |
| 1853 | 948 | CG4293 | DRSC18557 |
| 2802 | 199 | CG18004 | DRSC06705 |
| 1.58e5 | 5706 | Shawn + Tyler | DRSC19564 |
| 1.43e5 | 5140 | Shawn + Tyler | DRSC19565 |
| 70342 | 3166 | CG10631 | DRSC02081 |
| 3174 | 186 | ValRS (Valyl-tRNA synthetase) | DRSC06864 |
| 1.29e5 | 5432 | beat-Va (beaten path Va) | DRSC14192 |
| 1.30e5 | 7265 | COX3 (retired record) | DRSC21279 |
| 1.44e5 | 4483 | Mec2 | DRSC20054 |
| 1.48e5 | 6833 | GstD10 (Glutathione S transferase D10) | DRSC15346 |
| 1.36e5 | 5922 | CG42712 (retired record) | DRSC01038 |
| 70840 | 3138 | CG32066 | DRSC10652 |
| 95921 | 5164 | CG32066 | DRSC10653 |
| 92490 | 2482 | amon (amontillado) | DRSC13784 |
| 1.22e5 | 5844 | amon (amontillado) | DRSC16900 |
| 1.63e5 | 6719 | betaNACtes1 (Nascent-associated complex beta-subunit-like, testis 1) | DRSC19534 |
| 1.14e5 | 5318 | CG42541 | DRSC17973 |
| 51031 | 2865 | CG42541 | DRSC18119 |
| 1.15e5 | 5466 | CG42541 | DRSC18120 |
| 1.37e5 | 6738 | Mst84Db (Male-specific RNA 84Db) | DRSC12542 |
| 1.28e5 | 6774 | Mst84Db (Male-specific RNA 84Db) | DRSC12598 |
